Our source for the survivor count and T/C values is PubChem BioAssay AID300 (DTP/NCI, 2004).

The assay deals with Madison 109 lung carcinoma i.m., mice, median survival. The assay is described as follows: NCI In Vivo Anticancer Drug Screen. Data for tumor model Madison 109 Lung Carcinoma (intramuscular) in unknown mice. The conditions noted are these: T/C endpoint: median survival time, higher T/C = longer survival. On the procedure: The antitumor activity of compounds was measured in mice bearing transplantable tumors. Survival or tumor size were measured and the results are expressed as the measurement made in the treated group (T) divided by the measurement made in the vehicle treated control group (C). The tumor model used in this assay is Madison 109 Lung Carcinoma (intramuscular) in unknown mice

The mark [1] stands for this setting: dose: 39.0 mg/kg/injection, schedule: Q01DX001 (ip), vehicle: saline.

The list shows only some results of the screen, not a fair sample: it gathers tests that were run many times, whatever their T/C, doses with no T/C, and many T/C values between a quarter and a half above the control. Further doses and runs are listed elsewhere. T/C gives the treated animals as a percentage of the vehicle group. Some doses have a count of surviving animals in place of a T/C: the source holds a T/C of zero for them, seemingly a mark for toxic or unscored doses. Some survivor counts are full or nearly so, which does not show that the dose was tolerated: survival well below the control is almost never listed, so the zero probably covers shortened survival too. Counts of survivors are from the toxicity check (mostly the fifth day) where no day follows; animals may have died later. Schedule codes are those of the source, taken here to give the interval after Q, in days (D) or hours (H), and the number of doses after X. Some schedule codes hold Z or #, which are not explained here. Where survival is the endpoint, this PubChem deposit counts one and a half times the control or more as active, and values a quarter to a half above the control carry no call in these data; other NCI protocols may use other cut-offs.

Take `CO[C@H]1/C=C/O[C@@]2(C)Oc3c(C)c(O)c4c(O)c(c(/C=N/N5C(C)CN(Cc6ccccc6)CC5C)c(O)c4c3C2=O)NC(=O)/C(C)=C\C=C\[C@H](C)[C@H](O)[C@@H](C)[C@@H](O)[C@@H](C)[C@H](OC(C)=O)[C@@H]1C` (some centres not stated): the survivor count (dose: 8.0 mg/kg/injection, schedule: Q03HX024 (ip), vehicle: saline) was 8 of 8; the survivor count (dose: 32.0 mg/kg/injection, schedule: Q03HX024 (ip), vehicle: saline) is reported as 8 of 8; the survivor count (dose: 64.0 mg/kg/injection, schedule: Q02DX Z (ip), vehicle: saline) is recorded as 8 of 8; the survivor count (dose: 64.0 mg/kg/injection, schedule: Q03HX024 (ip), vehicle: saline) was 6 of 8; the survivor count (dose: 128.0 mg/kg/injection, schedule: Q01DX009 (ip), vehicle: saline) is given as 7 of 8; the survivor count (dose: 128.0 mg/kg/injection, schedule: Q02DX Z (ip), vehicle: saline) is reported as 8 of 8. Besides, the survivor count runs as follows: (dose: 128.0 mg/kg/injection, schedule: Q03HX008 (ip), vehicle: saline) 5 of 8; (dose: 256.0 mg/kg/injection, schedule: Q01DX009 (ip), vehicle: saline) 1 of 8; (dose: 256.0 mg/kg/injection, schedule: Q02DX Z (ip), vehicle: saline) 8 of 8; (dose: 256.0 mg/kg/injection, schedule: Q04DX003 (ip), vehicle: saline) 8 of 8; (dose: 512.0 mg/kg/injection, schedule: Q01DX001 (ip), vehicle: saline) 8 of 8; (dose: 512.0 mg/kg/injection, schedule: Q01DX009 (ip), vehicle: saline) 0 of 8. Besides, the survivor count by setting is: (dose: 512.0 mg/kg/injection, schedule: Q02DX Z (ip), vehicle: saline) 0 of 8; (dose: 512.0 mg/kg/injection, schedule: Q04DX003 (ip), vehicle: saline) 6 of 8; (dose: 1024.0 mg/kg/injection, schedule: Q01DX001 (ip), vehicle: saline) 0 of 8.
Take `O=CC(NC(=O)N(CCCl)N=O)C(O)C(O)C(O)CO` (configuration not stated): the survivor count under setting [1] is reported as 8 of 8.
For the compound `CC1=C(/C=C/C(C)=C/C=C/C(C)=C/C(=O)O)C(C)(C)CCC1`, the survivor count is reported as 7 of 8 (dose: 100.0 mg/kg/injection, schedule: Q01DX009 (ip), vehicle: other) and 8 of 8 (dose: 200.0 mg/kg/injection, schedule: Q01DX009 (ip), vehicle: other).
As to `CC1OC(O[C@H]2/C=C/C=C/C=C/C=C/C=C/C=C/C=C/[C@H](C)[C@@H](O)[C@@H](C)[C@H](C)OC(=O)C[C@H](O)C[C@H](O)CC[C@@H](O)[C@H](O)C[C@H](O)C[C@]3(O)C[C@H](O)[C@@H](C(=O)O)[C@H](C2)O3)C(O)C(N)C1O` (some centres not stated), the survivor count is given as 1 of 8 (dose: 12.5 mg/kg/injection, schedule: Q01DX009 (ip), vehicle: DMSO); 0 of 8 (dose: 25.0 mg/kg/injection, schedule: Q01DX009 (ip), vehicle: DMSO); 0 of 8 (dose: 50.0 mg/kg/injection, schedule: Q01DX009 (ip), vehicle: DMSO); 0 of 8 (dose: 100.0 mg/kg/injection, schedule: Q01DX009 (ip), vehicle: DMSO).
On to `Cc1c2ccncc2c(C)c2c1[nH]c1ccccc12`, for which the survivor count (dose: 32.0 mg/kg/injection, schedule: Q01DX009 (ip), vehicle: other) is 7 of 8.
On to `O=C(O)c1c(Cl)c(Cl)c(Cl)c(Cl)c1-c1c2cc(I)c(=O)c(I)c-2oc2c(I)c(O)c(I)cc12`, for which the survivor count (dose: 16.0 mg/kg/injection, schedule: Q01DX009 (ip), vehicle: water) was 8 of 8; the survivor count (dose: 100.0 mg/kg/injection, schedule: Q01DX009 (ip), vehicle: water) is reported as 8 of 8; the survivor count (dose: 200.0 mg/kg/injection, schedule: Q01DX009 (ip), vehicle: water) is 7 of 8; the survivor count (dose: 400.0 mg/kg/injection, schedule: Q01DX009 (ip), vehicle: water) was 0 of 8.
Take `CO[C@H](C(=O)[C@@H](O)[C@@H](C)O)[C@@H]1Cc2cc3cc(OC4CC(OC5CC(O)C(O)C(C)O5)C(O)C(C)O4)c(C)c(O)c3c(O)c2C(=O)[C@H]1OC1CC(OC2CC(OC3CC(C)(O)C(O)C(C)O3)C(O)C(C)O2)C(O)C(C)O1` (some centres not stated): the survivor count is given as 8 of 8 (dose: 0.2 mg/kg/injection, schedule: Q01DX009 (ip), vehicle: water) and 6 of 8 (dose: 0.6 mg/kg/injection, schedule: Q01DX009 (ip), vehicle: water).
Regarding `O=S(=O)(n1ccnc1)C(F)(F)F`, the survivor count (dose: 23.0 mg/kg/injection, schedule: Q01DX001 (ip), vehicle: saline) is given as 8 of 8 and the survivor count under setting [1] is 8 of 8.
Consider `COc1cc2c(c(OC)c1OC)-c1ccc(OC)c(=O)cc1[C@@H](NC(C)=O)CC2`, for which the survivor count (dose: 0.03 mg/kg/injection, schedule: Q01DX009 (ip), vehicle: water) was 8 of 8. For the same compound, the T/C (dose: 0.48 mg/kg/injection, schedule: Q01DX009 (ip), vehicle: water) was 127 % of control.
Turning to `CCN(CC)CCOc1ccc2c(c1)C(=O)c1cc(OCCN(CC)CC)ccc1-2`, the T/C (dose: 100.0 mg/kg/injection, schedule: Q04DX009 (ip), vehicle: Klucel (hydroxypropylcellulose) (HPC)) is 126 % of control. Also, the survivor count (dose: 150.0 mg/kg/injection, schedule: Q04DX009 (ip), vehicle: Klucel (hydroxypropylcellulose) (HPC)) was 7 of 8.
On to `CC(=O)c1cccc(NC2C(N)C(NC(=O)N(C)C)(C(C)O)C(C)(O)C2(O)COC(=O)c2c(C)cccc2O)c1` (configuration not stated), for which, for the setting “dose: 0.1 mg/kg/injection, schedule: Q01DX009 (ip), vehicle: other”, the survivor count was 8 of 8. The T/C (dose: 1.2 mg/kg/injection, schedule: Q01DX009 (ip), vehicle: other) is 138 % of control.
